From PMC6176987, “Correction of cognitive deficits in mouse models of Down syndrome by a pharmacological inhibitor of DYRK1A” (Disease Models & Mechanisms, 2018)

System: Ts65Dn mice brain phosphoproteins
Test: Brain phosphoproteomic analysis, Ts65Dn mice
Type: in vivo, mouse
Settings: 20 mg/kg daily i.p. 19 days

O=C1NC(Nc2ccccc2)=N/C1=C\c1ccc2c(c1)OCO2 [L41]
Modulated proteins trisomic, L41 vs vehicle (Cerebellum): 355 | Modulated proteins trisomic, L41 vs vehicle (Cortex): 228 | Modulated proteins trisomic, L41 vs vehicle (Hippocampus): 253
